Data from the supplement of paper PMC10849652.
This is one part of the list.

The chains behind the UniProt entries cited, without tags or fusion partners. Where a name states a change or a piece, a line headed by the entry shows the natural chain unless it says otherwise.
UniProt P09917: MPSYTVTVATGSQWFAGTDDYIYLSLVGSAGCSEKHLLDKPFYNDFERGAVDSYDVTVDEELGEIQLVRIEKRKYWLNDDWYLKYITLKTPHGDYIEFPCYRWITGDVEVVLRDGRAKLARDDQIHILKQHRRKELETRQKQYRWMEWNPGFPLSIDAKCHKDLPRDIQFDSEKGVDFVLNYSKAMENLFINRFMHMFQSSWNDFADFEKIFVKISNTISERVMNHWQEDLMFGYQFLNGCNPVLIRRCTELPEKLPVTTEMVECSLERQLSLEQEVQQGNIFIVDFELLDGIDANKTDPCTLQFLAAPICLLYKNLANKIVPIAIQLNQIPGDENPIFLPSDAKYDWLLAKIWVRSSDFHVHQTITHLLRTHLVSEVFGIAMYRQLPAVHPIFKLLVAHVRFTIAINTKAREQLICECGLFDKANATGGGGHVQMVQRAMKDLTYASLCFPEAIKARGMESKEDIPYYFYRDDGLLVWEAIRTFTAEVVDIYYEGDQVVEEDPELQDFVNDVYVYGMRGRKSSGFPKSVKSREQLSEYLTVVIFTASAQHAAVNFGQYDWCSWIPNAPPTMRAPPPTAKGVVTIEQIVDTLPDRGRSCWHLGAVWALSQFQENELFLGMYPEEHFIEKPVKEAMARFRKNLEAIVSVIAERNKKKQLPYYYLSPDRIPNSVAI
UniProt Q9NP73: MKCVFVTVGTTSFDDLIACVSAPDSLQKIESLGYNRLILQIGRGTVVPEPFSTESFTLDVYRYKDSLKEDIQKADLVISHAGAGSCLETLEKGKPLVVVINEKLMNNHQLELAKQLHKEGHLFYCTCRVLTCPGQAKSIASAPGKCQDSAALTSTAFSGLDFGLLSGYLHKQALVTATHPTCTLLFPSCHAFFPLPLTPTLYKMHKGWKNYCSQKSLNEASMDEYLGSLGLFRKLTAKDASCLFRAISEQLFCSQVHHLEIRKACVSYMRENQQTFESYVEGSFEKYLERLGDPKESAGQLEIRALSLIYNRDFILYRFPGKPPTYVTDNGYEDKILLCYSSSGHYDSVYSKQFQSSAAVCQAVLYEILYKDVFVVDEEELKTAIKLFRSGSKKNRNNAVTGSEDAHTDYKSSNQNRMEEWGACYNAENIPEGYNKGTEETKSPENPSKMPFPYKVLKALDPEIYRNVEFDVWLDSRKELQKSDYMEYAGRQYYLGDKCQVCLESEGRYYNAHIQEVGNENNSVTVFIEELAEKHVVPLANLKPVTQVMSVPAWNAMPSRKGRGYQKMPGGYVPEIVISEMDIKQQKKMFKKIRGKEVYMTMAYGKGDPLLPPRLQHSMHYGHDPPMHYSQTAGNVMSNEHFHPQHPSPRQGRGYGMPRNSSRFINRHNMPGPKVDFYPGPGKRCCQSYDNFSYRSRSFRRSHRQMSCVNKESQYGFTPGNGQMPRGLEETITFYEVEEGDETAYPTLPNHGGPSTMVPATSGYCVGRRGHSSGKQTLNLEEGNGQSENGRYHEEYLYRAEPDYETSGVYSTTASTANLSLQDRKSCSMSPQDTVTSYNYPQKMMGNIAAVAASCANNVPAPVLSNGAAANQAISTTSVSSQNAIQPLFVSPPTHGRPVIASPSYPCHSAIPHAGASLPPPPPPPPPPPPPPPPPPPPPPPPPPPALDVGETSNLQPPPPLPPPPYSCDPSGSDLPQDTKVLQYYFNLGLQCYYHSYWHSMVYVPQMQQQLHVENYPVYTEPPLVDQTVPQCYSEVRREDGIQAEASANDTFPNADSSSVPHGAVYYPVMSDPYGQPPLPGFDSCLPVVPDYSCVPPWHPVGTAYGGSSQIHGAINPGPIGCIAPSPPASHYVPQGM
UniProt Q9BS18, whole entry, looked up: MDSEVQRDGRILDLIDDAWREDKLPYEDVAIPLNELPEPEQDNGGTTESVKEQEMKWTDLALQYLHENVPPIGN
UniProt Q9NVV5: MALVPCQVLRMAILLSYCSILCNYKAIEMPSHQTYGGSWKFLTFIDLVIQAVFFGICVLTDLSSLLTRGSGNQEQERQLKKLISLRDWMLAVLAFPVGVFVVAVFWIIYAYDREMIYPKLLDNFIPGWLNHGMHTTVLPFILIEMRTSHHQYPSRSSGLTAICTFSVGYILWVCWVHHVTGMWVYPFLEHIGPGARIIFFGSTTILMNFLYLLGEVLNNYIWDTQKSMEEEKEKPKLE
UniProt Q86V24: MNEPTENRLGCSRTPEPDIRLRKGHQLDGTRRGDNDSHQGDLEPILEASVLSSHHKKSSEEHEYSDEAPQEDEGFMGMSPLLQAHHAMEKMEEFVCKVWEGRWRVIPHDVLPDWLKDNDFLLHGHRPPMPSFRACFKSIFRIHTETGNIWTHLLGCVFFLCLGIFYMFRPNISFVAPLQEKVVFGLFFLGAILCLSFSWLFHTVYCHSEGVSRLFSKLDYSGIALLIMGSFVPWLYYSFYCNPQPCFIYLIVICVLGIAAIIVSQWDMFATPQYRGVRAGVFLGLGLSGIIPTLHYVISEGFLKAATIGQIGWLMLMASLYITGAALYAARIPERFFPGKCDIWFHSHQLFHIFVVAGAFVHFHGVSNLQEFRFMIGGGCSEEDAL
UniProt Q13686: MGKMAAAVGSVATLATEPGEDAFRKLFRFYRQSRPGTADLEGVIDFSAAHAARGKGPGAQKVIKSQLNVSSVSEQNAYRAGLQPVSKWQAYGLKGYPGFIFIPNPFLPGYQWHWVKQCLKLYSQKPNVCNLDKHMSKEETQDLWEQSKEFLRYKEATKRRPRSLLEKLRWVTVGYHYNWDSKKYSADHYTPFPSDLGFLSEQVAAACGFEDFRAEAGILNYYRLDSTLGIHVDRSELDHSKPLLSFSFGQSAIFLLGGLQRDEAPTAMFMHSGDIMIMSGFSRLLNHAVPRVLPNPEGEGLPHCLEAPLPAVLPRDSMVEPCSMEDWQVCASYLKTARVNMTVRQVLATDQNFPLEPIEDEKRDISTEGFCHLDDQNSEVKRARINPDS
UniProt P51828: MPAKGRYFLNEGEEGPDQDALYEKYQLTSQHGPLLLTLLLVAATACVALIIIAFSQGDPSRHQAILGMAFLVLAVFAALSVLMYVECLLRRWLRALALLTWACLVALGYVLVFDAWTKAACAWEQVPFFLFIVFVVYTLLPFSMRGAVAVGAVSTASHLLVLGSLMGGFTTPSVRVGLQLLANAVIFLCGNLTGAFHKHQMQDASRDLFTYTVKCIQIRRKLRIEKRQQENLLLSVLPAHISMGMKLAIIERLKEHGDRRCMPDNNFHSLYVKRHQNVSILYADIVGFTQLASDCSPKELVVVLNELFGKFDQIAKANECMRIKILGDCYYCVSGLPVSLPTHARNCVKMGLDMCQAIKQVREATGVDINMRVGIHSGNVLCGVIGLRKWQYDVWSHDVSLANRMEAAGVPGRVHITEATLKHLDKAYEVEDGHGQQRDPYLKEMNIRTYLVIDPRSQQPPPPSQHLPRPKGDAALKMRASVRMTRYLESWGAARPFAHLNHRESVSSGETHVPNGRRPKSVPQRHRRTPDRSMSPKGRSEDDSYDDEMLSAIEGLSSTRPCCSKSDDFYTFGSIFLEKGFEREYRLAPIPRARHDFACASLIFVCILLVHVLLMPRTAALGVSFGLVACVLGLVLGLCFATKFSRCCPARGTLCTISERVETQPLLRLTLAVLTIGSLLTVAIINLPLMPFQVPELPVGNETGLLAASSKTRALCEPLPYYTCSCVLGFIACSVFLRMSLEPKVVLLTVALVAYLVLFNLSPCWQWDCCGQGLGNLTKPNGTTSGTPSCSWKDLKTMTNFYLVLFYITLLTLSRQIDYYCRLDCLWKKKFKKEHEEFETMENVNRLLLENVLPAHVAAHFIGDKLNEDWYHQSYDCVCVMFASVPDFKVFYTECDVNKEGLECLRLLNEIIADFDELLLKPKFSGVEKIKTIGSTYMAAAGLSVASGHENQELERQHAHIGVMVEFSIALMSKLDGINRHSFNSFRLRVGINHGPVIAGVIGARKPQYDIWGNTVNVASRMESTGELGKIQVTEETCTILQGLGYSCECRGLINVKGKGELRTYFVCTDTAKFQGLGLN
UniProt Q9BQI0: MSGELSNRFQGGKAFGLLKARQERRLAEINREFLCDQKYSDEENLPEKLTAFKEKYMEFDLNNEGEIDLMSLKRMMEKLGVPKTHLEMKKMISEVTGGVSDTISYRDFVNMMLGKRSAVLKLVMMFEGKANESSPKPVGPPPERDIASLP
UniProt Q8N302: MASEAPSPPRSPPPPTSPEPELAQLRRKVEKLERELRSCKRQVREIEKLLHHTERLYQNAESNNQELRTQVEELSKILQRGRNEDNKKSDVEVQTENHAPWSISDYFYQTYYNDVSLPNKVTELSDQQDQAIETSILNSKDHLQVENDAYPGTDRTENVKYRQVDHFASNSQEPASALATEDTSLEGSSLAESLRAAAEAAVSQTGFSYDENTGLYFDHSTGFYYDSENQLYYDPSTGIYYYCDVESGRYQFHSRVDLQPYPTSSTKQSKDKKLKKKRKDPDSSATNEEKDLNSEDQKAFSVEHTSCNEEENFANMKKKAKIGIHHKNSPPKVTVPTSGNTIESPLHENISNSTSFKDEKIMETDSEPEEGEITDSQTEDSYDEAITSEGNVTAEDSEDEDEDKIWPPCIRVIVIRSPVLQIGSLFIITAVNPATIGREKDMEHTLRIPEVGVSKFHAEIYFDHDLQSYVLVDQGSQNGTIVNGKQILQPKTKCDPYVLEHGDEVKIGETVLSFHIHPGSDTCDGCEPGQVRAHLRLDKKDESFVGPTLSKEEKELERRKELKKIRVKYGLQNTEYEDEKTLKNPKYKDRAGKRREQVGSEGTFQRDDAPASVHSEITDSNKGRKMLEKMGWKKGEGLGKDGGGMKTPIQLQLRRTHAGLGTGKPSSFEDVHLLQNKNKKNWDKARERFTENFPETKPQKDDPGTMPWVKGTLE
UniProt Q9NYG5, whole entry, looked up: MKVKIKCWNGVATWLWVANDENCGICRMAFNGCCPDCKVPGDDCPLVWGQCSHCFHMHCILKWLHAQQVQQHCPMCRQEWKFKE
UniProt O94910: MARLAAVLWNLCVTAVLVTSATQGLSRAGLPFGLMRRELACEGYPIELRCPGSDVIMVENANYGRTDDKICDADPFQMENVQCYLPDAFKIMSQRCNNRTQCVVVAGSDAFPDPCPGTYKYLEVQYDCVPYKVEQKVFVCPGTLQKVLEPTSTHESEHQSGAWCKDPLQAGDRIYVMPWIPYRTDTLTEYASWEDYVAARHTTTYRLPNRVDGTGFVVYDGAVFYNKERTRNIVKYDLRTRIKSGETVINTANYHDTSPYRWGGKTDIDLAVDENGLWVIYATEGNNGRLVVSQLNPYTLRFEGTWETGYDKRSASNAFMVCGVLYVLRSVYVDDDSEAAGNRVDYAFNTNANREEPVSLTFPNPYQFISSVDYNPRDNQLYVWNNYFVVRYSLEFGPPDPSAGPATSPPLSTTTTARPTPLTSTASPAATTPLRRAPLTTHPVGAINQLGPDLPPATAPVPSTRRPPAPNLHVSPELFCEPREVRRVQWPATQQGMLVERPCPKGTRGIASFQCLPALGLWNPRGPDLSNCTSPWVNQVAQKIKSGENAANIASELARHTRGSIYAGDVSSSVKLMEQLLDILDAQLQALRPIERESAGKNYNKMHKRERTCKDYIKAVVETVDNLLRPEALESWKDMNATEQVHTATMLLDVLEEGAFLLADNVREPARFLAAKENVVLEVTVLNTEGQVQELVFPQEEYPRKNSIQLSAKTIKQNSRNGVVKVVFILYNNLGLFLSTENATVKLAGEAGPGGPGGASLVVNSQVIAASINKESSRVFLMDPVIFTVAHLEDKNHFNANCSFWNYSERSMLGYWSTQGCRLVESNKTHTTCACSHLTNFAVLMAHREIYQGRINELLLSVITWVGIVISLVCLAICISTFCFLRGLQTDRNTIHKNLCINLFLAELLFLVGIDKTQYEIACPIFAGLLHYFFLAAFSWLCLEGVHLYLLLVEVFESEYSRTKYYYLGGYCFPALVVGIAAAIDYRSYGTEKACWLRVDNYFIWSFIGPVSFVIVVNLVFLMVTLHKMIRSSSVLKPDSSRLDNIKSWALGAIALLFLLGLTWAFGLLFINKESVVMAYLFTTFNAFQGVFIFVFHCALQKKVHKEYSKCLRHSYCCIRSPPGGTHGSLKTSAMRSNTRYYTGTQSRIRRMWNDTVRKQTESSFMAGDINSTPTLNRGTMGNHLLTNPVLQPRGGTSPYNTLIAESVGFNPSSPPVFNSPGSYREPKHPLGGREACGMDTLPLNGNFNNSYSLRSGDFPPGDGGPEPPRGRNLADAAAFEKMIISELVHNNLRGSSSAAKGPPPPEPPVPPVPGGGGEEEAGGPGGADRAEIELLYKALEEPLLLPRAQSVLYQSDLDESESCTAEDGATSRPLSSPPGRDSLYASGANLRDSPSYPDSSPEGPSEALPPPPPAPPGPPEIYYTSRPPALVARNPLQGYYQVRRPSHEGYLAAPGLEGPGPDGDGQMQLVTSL
UniProt Q9NZD4: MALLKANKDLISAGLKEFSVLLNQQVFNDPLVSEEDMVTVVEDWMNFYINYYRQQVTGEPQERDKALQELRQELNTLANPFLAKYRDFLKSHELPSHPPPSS

Tests used:
Experiment in all cases: log2 fold change, soluble protein after heating vs DMSO (PISA); higher = thermal stabilisation; K562 cells, 10 uM, 30 min; active = over 0.2 and 3.5 SD of the protein, either way, in both replicates (recomputed)
[1] = compound: CN1C2=C(C3=C1C(=O)N(N=C3)CC4=CC(=CC=C4)N)SC(=C2)S(=O)C
Method in brief: (§1)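 K562 cells at 2×10^6 cells/mL were exposed to 10 μM compound for 30 min, then aliquots were heated for 3 min across 48°C-58°C, pooled, and extracted in PBS containing 0.5% NP-40 at 4°C. The supernatant after 21,000xg for 90 min was taken as soluble protein and measured by TMTpro 16plex LC-MS/MS with channel sums equalised. Thermal stability is reported relative to control samples, with values from duplicates. Fold changes are given on a log2 scale.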

[2] = compound: CC1=CC=C(C=C1)SC2=C3C=C(SC3=CN=C2)C(=O)N
Method in brief: as §1

[3] = compound: CCCCN(Cc1ccc(C(=O)NO)cc1)C(=O)Nc1ccccc1 [Nexturastat A]
Method in brief: as §1

[4] = compound: CCCS(=O)(=O)Nc1ccc(F)c(C(=O)c2c[nH]c3ncc(-c4ccc(Cl)cc4)cc23)c1F [vemurafenib]
Method in brief: as §1

[5] = compound: CCCS(=O)(=O)Nc1ccc(F)c(C(=O)c2c[nH]c3ncc(Cl)cc23)c1F
Method in brief: as §1

[6] = compound: CCCc1cc(C)[nH]c(=O)c1CNC(=O)c1cc(-c2ccnc(N3CCN(C)CC3)c2)cc2c1cnn2C(C)C
Method in brief: as §1

[7] = compound: CCN(CCCOc1ccc2c(Nc3cc(CC(=O)Nc4cccc(F)c4)[nH]n3)ncnc2c1)CCOP(=O)(O)O [barasertib]
Method in brief: as §1

[8] = compound: CC[C@@H]1C(=O)N(C)c2cnc(Nc3ccc(C(=O)N[C@H]4CC[C@H](N5CCN(CC6CC6)CC5)CC4)cc3OC)nc2N1C(C)C [volasertib]
Method in brief: as §1

[9] = compound: CC[C@H](C)N1C=C(C2=C(C=C(C=C21)C3=CN=C(C=C3)N4CCNCC4)C(=O)NCC5=C(C=C(NC5=O)C)C)C
Method in brief: as §1

[10] = compound: CC[C@H](C)[C@@H](C(=O)N[C@@H]([C@@H](C)O)C(=O)N[C@@H](CC(C)C)C(=O)[C@]1(CO1)C)NC(=O)[C@H]([C@@H](C)CC)N(C)C(=O)C [epoxomicin]
Method in brief: as §1

[11] = compound: CCn1cc(-c2ccnc3[nH]c(-c4cccc(CN(C)C)c4)cc23)c(-c2ccc(NC(=O)N(C)C)cc2)n1
Method in brief: as §1

[12] = compound: CN(C)CC(=O)Nc1ccc2[nH]c(=O)c3ccccc3c2c1
Method in brief: as §1

[13] = compound: CN(CCOC1=CC=C(C=C1)C[C@H]2C(=O)NC(=O)S2)C3=CC=CC=N3 (racemic) [rosiglitazone]
Method in brief: as §1

[14] = compound: CN1CCC(CNc2ccc3ncc(-c4cccc(OC(F)(F)F)c4)n3n2)CC1
Method in brief: as §1

[15] = compound: CCN(CC)Cc1ccc2cc(COC(=O)Nc3ccc(C(=O)NO)cc3)ccc2c1 [givinostat]
Method in brief: as §1

[16] = compound: CC[C@@H]1C(=O)N(C)c2cnc(Nc3ccc(C(=O)NC4CCN(C)CC4)cc3OC)nc2N1C1CCCC1
Method in brief: as §1

[17] = compound: CCn1c(C(=O)N(C2CC2)C2CC2)cc2c3c(ncn3C)c(Nc3cc(C)n(C)n3)nc21
Method in brief: as §1

[18] = compound: CC1=C(C=C(C=C1)NC(=O)C2=CC(=CC=C2)N(C)C)NC(=O)C3=CC=C(C=C3)O
Method in brief: as §1

[19] = compound: CC1=NC(=CC=C1)C2=C(N=C(N2)C(C)(C)C)C3=CC4=NC=CN=C4C=C3
Method in brief: as §1

Measured: log2 fold change

ALOX5 (UniProt P09917)
inactive: [1] -0.146

ALG13 isoform 2 (UniProt Q9NP73)
inactive: [2] 0.022 | [3] -0.227 | [4] -0.034 | [5] 0.089 | [6] -0.083 | [7] 0.066 | [8] 0.048 | [9] 0.107 | [10] 0.074 | [11] -0.005 | [12] 0.001 | [13] 0.018 | [1] 0.07 | [14] 0.046

ANAPC13 (UniProt Q9BS18)
inactive: [3] -0.038 | [10] 0.366

ALMS1 (UniProt Q8TCU4)
inactive: [15] 0.036 | [7] 0.086 | [16] -0.044 | [9] 0.064 | [17] -0.143 | [11] 0.055 | [13] 0.13 | [14] -0.066

Quoted at random: two entries already listed.
ANAPC13 (UniProt Q9BS18)
inactive: [3] -0.038 | [10] 0.366

ALG13 isoform 2 (UniProt Q9NP73)
inactive: [2] 0.022 | [3] -0.227 | [4] -0.034 | [5] 0.089 | [6] -0.083 | [7] 0.066 | [8] 0.048 | [9] 0.107 | [10] 0.074 | [11] -0.005 | [12] 0.001 | [13] 0.018 | [1] 0.07 | [14] 0.046

Following part:

AIG1 (UniProt Q9NVV5)
inactive: [11] -0.268 | [1] 0.297 | [14] 0

ADIPOR2 (UniProt Q86V24)
inactive: [2] 0.013 | [4] 0.026 | [5] -0.1 | [15] 0.037 | [7] -0.103 | [8] -0.071 | [17] -0.015 | [11] 0.049 | [12] -0.044 | [13] 0.104 | [1] -0.09 | [14] -0.131

AGAP1 (UniProt Q9UPQ3)
inactive: [18] -0.165 | [19] 0.096 | [4] 0.029 | [15] 0.037 | [17] 0.025 | [12] 0.152 | [1] -0.01

ALKBH1 (UniProt Q13686)
inactive: [18] 0.122 | [2] 0.041 | [19] -0.179 | [3] -0.085 | [4] 0.012 | [5] -0.041 | [7] 0.001 | [8] 0.019 | [9] -0.041 | [10] 0.041 | [11] -0.085 | [12] -0.149 | [13] -0.008 | [1] -0.048 | [14] -0.071

ADCY7 (UniProt P51828)
inactive: [18] 0.079 | [3] 0.07 | [9] 0.031 | [10] -0.134 | [11] 0.151 | [1] 0.132 | [14] -0.032

AIF1L isoform 2 (UniProt Q9BQI0)
inactive: [18] -0.015 | [2] 0 | [3] -0.307 | [4] 0.075 | [5] -0.02 | [6] -0.049 | [15] -0.057 | [7] 0.021 | [16] -0.17 | [8] -0.076 | [9] 0.171 | [10] 0.031 | [17] 0.07 | [11] 0.016 | [12] 0.101 | [13] -0.007 | [1] -0.144 | [14] 0.002

AGTRAP isoform 2 (UniProt Q6RW13)
inactive: [15] -0.081 | [16] -0.029 | [17] 0.023 | [11] 0.042 | [14] 0.025

ANAPC15 isoform 2 (UniProt P60006)
inactive: [2] -0.121 | [19] -0.004 | [4] -0.061 | [5] 0.007 | [15] 0.093 | [16] 0.2 | [8] 0.093 | [17] 0.321 | [12] -0.092

AMOTL1 (UniProt Q8IY63)
inactive: [7] -0.119 | [13] -0.01

AGGF1 (UniProt Q8N302)
inactive: [6] 0.097 | [15] 0.184 | [7] 0.147 | [17] -0.092 | [13] -0.056

AGA (UniProt P20933)
inactive: [2] -0.198 | [5] -0.366 | [6] 0.018 | [15] -0.063 | [7] 0.042 | [16] 0.145 | [8] 0.178 | [17] -0.052 | [11] 0.1 | [13] 0.066 | [14] 0.073

ANAPC11 (UniProt Q9NYG5)
inactive: [4] -0.009 | [15] 0.211 | [7] 0.007 | [16] -0.073 | [17] -0.307 | [12] -0.044 | [13] -0.064 | [1] -0.044

ADGRL1 (UniProt O94910)
inactive: [11] -0.235 | [14] 0.092

AMBRA1 isoform 5 (UniProt Q9C0C7)
inactive: [3] 0.109 | [4] -0.034 | [6] 0.054 | [7] 0.017 | [10] -0.005 | [12] 0.056 | [13] 0.028 | [1] -0.014

AHSP (UniProt Q9NZD4)
inactive: [18] 0.101 | [6] 0.181 | [15] -0.172 | [9] 0.05 | [17] -0.252

AFMID isoform 2 (UniProt Q63HM1)
inactive: [4] 0.048 | [6] -0.115 | [12] -0.104

ADD1 isoform 4 (UniProt P35611)
inactive: [19] 0.098 | [3] 0.024 | [7] 0.03 | [10] -0.431 | [11] -0.001 | [14] 0.086
